Test results from patent US10406218B2 (priority 2014, dated 2019).
Read-outs that look alike come from different tables or passages of the source.

System: Th* (CXCR3+CCR6+CCR4-) cells
Set-up: species or system human
[1] = gene down in Th* cells (TRUE/FALSE)
[2] = gene up in Th* cells (TRUE/FALSE)

Substance	th* down (gene down in Th* cells vs. other Th subsets (TRUE/FALSE))	th* up (gene up in Th* cells vs. other Th subsets (TRUE/FALSE))	th* down [1]	th* up [2]
DAB1	FALSE	TRUE		
CCL20			FALSE	TRUE
CCL4			FALSE	FALSE
